Source: patent publication US8008259B2, “Neurotrophin-derived peptide sequences” (Copenhagen University, Techtrans Unit, priority 2005, dated 2011)
At least one compound was matched to its structure with a doubt left.

The chains behind the UniProt entries cited, without tags or fusion partners. Residues count along the entry.
UniProt Q16620, 32-822, species assumed: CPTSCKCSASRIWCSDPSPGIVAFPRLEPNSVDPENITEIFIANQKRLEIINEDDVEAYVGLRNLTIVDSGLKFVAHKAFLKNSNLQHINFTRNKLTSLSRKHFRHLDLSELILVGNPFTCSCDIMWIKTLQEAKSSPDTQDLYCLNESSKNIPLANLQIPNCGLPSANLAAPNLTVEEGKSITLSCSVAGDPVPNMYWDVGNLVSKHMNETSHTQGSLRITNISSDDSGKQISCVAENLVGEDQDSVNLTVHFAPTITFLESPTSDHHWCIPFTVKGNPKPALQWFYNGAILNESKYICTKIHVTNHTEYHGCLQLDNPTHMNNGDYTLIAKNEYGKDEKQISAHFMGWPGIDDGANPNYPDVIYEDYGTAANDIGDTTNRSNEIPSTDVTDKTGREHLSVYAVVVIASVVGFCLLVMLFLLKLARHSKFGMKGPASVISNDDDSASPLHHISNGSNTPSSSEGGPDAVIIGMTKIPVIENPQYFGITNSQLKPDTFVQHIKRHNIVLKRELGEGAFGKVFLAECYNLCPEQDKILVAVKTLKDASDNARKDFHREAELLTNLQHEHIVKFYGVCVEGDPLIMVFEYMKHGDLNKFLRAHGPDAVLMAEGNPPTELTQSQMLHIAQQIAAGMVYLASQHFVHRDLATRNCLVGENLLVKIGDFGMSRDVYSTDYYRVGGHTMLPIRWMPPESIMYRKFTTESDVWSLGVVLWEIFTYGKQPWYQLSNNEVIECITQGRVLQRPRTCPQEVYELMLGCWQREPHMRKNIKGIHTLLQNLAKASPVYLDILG
UniProt Q16288, 32-839, species assumed: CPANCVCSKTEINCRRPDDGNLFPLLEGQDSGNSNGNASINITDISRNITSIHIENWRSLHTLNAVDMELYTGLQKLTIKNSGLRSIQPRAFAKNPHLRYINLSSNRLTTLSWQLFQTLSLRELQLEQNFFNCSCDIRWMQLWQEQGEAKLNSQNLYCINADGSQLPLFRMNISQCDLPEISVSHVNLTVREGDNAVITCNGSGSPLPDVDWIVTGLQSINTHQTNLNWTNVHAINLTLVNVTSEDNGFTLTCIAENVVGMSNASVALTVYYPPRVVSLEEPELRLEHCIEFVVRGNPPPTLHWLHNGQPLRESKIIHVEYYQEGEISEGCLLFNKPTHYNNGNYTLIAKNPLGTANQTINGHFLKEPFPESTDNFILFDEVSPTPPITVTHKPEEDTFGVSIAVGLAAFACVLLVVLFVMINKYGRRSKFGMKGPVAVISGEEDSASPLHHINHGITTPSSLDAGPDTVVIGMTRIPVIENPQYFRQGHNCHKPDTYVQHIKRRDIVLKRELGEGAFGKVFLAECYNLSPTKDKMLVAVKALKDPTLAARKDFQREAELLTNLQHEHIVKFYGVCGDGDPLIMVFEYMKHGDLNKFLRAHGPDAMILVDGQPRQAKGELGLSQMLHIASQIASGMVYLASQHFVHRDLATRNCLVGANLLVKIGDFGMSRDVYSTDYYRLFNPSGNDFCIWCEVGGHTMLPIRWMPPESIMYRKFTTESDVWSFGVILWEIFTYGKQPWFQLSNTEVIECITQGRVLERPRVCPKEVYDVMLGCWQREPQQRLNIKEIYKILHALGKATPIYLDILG

What was measured:
Settings in all cases: SPR, 25° C., HBS-EP buffer pH 7.4, receptor immobilized on CM4 chip
TrkB = TrkB (Homo sapiens, UniProt Q16620); assay: Surface Plasmon Resonance binding to immobilized TrkB
TrkC = TrkC (Homo sapiens, UniProt Q16288); assay: Surface Plasmon Resonance binding to immobilized TrkC
Description: The TrkA, TrkB and TrkC receptors and p75^NTR were immobilized on a sensor chip, CM4, using an amine-coupling kit as follows: the chip was activated by 20 μl activation solution, N-hydroxysuccinimide, (NHS) and N-ethyl-N′-(3-[…])-carbodiimide (EDC), the protein was immobilized using 30 μl of a mixture of 4 μl (0.5 μg/ml) protein in 50 μl 10 mM sodium acetate buffer (pH 4.0); and the chip was blocked by 35 μl blocking solution (ethanolamine-HCl). The receptor surface was regenerated between ligand injections with 15 μl 2 mM NaCl or 10 mM glycine-HCl, pH 2.5. In the present experiments a flow rate of 5 μl/min was used.
The curve corresponding to the difference between binding to the Trk receptors or the […] receptor and a blank chip was used for analysis.

P75 receptor (p75NTR) = molecular target: T1, P75 receptor (p75NTR) (Homo sapiens, UniProt P08138); assay: Surface Plasmon Resonance binding to immobilized P75 receptor
T1 sequence (P08138 29-427): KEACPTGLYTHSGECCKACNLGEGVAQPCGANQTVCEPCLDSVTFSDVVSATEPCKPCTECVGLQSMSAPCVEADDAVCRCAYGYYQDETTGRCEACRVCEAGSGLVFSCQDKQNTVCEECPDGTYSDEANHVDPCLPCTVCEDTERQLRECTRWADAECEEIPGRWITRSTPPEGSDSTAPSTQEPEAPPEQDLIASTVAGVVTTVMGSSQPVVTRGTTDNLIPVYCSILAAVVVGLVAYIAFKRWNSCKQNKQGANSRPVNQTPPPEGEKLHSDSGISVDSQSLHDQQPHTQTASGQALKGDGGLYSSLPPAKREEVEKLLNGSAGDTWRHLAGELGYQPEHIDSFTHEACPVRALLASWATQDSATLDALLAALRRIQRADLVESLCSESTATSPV

Substance: H-VCTLTIKRGR-OH [BDNF-C2]
- Kd (TrkB): 0.0408 µM
- Kd (TrkC): 0.111 µM
- Kd (P75 receptor (p75NTR)): 0.331 µM

Substance: H-RIDTSCV-OH [BDNF-C1]
- Kd (TrkB): 1.04 µM
- Kd (TrkC): 3.5 µM
- Kd (P75 receptor (p75NTR)): 1.2 µM
